Data reported in patent publication US10070648B2, “Photodynamic insecticides” (ROSALIND FRANKLIN UNIVERSITY OF MEDICINE AND SCIENCE, priority 2016, dated 2018).

Experiments:
[1] = tested on: Phlebotomus duboscqi female and male adult flies; experiment: Uptake by adult sand flies fed dye + sucrose solution; assay type: in vivo; details: 5% sucrose solution and 500 μL of 5 mg/mL dye in cotton ball, ~20 hrs in the dark
[2] = tested on: Aedes albopictus clone C6/36 (ATCC CRL-1660); experiment: Uptake of PS by mosquito cells in vitro and photo-inactivation; details: exposed overnight in the dark
Experimental: (§1) The insect cells were exposed to both dyes overnight and illuminated with white light under conditions similar to those described for mammalian and Leishmania cells. Images were captured first under differential interference (DIF) [A] and then under the filter sets for DAPI and Texas red [B]. [C] Chemical structure of cyanosione and rose Bengal.
as §1, with “Uptake of PS was assessed in insect cells, specifically Aedes albopictus clone C6/36 (ATCC CRL-1660). The” for “The”, “cells. […]” for “cells.”

For `O=C([O-])c1c(Cl)c(Cl)c(Cl)c(Cl)c1-c1c2cc(I)c(=O)c(I)c-2oc2c(I)c([O-])c(I)cc12.[Na+].[Na+]` [Rose Bengal], the “uptake of dye by sand flies” value [1] was “taken up by the flies of both sexes” and the “dye uptake by cells (fluorescence)” value [2] was “cytoplasmic fluorescence”.
